The text below walks through data of the supplement of paper PMC10849652.

The chains behind the UniProt entries cited, without tags or fusion partners. Where a name states a change or a piece, a line headed by the entry shows the natural chain unless it says otherwise.
UniProt O14730: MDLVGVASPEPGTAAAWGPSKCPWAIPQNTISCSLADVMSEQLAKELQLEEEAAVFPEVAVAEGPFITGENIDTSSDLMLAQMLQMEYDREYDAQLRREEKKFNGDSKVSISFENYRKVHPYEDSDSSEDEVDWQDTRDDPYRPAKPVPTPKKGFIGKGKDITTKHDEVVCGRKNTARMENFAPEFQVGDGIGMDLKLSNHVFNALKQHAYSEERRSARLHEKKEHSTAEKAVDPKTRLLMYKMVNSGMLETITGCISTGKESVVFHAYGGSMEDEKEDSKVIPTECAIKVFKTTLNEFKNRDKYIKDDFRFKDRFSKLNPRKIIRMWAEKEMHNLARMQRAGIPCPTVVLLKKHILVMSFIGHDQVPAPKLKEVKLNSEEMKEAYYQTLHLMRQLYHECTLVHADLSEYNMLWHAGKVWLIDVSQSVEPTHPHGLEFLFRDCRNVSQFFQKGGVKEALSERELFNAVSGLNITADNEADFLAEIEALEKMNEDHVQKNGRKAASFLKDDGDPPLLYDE
UniProt Q8WVD3: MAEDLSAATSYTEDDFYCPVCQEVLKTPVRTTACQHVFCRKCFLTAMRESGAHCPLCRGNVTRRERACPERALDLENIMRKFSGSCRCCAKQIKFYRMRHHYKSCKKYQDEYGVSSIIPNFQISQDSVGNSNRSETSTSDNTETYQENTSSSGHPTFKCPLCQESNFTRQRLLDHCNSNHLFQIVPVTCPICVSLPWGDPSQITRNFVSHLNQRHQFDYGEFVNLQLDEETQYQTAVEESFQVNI
UniProt Q9UKL0, whole entry, looked up: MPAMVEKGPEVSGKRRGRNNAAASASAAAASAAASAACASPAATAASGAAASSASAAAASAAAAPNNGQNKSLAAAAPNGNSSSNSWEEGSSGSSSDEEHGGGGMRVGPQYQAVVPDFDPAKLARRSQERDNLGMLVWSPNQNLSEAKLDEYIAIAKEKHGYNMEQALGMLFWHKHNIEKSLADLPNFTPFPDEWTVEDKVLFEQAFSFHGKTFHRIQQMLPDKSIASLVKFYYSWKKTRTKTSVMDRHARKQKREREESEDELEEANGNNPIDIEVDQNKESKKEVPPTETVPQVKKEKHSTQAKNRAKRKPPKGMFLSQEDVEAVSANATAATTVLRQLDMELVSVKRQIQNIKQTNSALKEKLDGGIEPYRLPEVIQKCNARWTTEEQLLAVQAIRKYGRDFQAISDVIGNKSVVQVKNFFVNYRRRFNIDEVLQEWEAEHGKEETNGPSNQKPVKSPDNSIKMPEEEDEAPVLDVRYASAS
UniProt Q63HN8: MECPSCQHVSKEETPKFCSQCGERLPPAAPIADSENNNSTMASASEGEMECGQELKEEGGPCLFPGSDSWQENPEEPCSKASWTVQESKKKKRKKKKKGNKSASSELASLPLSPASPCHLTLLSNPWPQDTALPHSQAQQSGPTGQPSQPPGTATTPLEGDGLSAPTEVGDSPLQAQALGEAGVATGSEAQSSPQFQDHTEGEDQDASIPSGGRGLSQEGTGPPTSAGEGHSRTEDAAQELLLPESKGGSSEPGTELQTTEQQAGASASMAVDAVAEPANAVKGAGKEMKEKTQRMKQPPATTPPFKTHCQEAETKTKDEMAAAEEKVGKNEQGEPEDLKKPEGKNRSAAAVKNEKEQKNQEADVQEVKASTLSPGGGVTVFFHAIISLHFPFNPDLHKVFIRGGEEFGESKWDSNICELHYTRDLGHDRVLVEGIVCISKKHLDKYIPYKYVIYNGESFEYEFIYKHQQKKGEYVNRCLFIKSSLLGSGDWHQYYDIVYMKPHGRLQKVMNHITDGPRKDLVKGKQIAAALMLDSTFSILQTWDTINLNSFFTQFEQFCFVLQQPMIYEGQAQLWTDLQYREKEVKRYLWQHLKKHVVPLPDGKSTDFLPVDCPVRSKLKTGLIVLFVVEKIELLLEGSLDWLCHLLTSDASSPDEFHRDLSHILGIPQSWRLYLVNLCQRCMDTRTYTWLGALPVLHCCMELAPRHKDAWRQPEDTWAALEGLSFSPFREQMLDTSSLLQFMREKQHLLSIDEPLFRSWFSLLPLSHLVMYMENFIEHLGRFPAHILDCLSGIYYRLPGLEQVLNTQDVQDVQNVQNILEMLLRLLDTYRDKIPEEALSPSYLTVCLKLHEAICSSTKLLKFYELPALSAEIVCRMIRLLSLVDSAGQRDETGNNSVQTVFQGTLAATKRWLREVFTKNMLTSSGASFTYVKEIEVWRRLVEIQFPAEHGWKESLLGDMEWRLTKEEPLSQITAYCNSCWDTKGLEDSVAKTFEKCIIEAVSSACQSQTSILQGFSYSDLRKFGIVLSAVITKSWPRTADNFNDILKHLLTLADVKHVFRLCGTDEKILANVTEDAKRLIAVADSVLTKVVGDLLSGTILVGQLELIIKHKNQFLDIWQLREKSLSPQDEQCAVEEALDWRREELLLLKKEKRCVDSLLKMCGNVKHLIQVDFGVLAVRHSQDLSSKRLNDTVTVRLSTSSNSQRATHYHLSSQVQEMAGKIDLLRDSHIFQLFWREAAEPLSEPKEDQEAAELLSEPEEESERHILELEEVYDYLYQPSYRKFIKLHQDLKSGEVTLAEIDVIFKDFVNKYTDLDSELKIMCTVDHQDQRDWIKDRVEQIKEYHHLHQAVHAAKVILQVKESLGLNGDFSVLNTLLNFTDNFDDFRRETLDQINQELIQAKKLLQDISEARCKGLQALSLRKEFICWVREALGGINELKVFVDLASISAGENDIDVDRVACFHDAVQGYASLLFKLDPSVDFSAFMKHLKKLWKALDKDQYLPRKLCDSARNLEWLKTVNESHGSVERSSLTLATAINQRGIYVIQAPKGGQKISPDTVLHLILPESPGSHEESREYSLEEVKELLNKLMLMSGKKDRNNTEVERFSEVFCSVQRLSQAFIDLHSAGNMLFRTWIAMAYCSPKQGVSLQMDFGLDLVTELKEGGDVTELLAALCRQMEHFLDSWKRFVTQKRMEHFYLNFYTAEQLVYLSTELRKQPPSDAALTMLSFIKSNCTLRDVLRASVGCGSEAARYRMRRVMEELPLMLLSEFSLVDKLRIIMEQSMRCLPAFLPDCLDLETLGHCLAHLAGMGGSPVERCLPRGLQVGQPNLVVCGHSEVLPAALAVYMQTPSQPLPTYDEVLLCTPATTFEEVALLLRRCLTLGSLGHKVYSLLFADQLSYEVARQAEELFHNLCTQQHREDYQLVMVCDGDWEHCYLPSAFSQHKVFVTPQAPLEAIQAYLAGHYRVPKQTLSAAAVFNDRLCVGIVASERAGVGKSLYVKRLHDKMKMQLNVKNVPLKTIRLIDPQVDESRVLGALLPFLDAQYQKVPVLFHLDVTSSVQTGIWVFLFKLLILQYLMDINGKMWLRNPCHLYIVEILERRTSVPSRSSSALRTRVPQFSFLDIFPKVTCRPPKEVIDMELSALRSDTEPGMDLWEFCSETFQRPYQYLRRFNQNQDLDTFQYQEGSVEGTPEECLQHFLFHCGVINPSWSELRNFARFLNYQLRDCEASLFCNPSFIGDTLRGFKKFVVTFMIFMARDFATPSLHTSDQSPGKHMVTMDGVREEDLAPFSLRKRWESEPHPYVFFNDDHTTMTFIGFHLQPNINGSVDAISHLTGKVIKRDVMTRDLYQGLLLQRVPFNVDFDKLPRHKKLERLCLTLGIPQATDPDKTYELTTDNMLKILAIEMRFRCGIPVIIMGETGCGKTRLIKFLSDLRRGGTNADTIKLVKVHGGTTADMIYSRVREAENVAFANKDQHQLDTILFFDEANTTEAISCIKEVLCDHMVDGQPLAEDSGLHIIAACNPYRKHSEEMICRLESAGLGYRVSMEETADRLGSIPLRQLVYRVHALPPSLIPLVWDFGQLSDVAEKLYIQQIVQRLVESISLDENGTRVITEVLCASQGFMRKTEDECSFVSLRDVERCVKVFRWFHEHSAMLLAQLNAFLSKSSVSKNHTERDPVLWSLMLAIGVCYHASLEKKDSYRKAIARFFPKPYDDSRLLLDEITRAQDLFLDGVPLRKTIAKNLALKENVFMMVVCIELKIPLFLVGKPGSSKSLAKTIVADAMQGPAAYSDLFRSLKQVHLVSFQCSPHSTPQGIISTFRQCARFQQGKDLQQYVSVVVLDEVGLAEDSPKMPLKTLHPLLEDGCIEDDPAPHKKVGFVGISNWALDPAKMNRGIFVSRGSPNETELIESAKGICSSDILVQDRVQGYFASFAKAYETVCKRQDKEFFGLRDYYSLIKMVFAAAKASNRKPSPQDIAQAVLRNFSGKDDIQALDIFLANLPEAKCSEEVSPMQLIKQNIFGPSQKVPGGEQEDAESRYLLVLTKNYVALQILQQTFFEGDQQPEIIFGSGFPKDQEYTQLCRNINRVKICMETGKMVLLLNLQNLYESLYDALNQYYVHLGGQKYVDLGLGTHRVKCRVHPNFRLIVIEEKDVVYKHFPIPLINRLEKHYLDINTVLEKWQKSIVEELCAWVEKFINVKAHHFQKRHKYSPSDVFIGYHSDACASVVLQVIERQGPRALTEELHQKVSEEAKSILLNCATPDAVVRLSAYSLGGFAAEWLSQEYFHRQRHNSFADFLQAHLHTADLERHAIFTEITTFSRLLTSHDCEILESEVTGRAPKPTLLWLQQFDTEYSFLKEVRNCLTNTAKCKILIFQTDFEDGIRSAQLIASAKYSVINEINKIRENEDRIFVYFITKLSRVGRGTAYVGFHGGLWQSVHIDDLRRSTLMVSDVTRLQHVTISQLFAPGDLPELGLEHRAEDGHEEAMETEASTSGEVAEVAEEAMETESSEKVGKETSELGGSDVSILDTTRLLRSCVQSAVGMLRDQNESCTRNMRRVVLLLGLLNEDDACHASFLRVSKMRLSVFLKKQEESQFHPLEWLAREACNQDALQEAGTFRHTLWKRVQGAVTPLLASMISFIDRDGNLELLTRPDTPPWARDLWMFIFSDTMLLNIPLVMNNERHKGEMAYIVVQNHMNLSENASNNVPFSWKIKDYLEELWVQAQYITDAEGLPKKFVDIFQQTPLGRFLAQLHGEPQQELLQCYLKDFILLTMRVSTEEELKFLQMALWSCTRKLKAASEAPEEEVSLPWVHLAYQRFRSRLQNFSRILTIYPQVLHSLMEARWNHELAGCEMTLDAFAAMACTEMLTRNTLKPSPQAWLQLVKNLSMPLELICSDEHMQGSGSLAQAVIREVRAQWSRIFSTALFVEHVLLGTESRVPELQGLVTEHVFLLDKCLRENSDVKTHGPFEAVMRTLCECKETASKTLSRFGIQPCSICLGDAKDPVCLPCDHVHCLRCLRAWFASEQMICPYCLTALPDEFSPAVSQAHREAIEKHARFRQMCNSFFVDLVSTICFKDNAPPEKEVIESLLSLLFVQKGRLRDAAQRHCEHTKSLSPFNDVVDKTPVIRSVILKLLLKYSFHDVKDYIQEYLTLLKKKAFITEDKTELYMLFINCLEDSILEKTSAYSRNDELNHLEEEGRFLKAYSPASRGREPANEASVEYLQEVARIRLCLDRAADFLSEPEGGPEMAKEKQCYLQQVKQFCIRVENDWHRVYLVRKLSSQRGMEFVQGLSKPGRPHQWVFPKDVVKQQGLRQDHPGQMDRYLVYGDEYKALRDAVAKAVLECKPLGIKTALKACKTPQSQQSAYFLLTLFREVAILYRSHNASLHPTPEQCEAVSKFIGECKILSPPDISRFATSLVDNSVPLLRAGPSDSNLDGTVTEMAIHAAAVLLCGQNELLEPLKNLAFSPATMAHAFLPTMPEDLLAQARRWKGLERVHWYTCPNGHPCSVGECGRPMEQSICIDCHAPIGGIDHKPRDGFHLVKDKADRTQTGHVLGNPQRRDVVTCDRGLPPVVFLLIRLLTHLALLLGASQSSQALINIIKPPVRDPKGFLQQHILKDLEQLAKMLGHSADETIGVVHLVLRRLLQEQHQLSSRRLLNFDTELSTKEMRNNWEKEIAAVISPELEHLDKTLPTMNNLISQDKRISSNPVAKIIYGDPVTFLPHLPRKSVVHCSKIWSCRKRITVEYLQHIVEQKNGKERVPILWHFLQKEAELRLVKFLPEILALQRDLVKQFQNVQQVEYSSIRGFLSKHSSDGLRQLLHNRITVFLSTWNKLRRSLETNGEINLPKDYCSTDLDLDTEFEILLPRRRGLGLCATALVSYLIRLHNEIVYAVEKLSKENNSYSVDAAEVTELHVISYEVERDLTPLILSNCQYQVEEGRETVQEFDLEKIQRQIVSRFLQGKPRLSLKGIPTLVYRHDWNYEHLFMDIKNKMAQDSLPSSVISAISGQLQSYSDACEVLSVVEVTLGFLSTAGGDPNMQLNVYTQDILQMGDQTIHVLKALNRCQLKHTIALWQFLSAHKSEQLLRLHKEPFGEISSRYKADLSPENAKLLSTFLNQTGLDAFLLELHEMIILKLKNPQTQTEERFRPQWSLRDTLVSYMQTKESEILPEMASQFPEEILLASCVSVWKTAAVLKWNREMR

Holding throughout (experiment): log2 fold change, soluble protein after heating vs DMSO (PISA); higher = thermal stabilisation; K562 cells, 10 uM, 30 min; active = over 0.2 and 3.5 SD of the protein, either way, in both replicates (recomputed)
Compound in experiment [1]: C1=CC=C(C=C1)[C@H](COC2=CC3=C(C=C2)NC(=O)N3)NC(=O)C4=CC=CN(C4=O)CC5=CC(=C(C=C5)F)F
The gist of the method: (§1)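 K562 cells at 2×10^6 cells/mL were treated with 10 μM compound for 30 min. Aliquots were heated for 3 min across 48°C-58°C, pooled, and extracted in PBS with 0.5% NP-40 at 4°C; soluble protein was the supernatant after 21,000xg for 90 min. Soluble protein was quantified by TMTpro 16plex LC-MS/MS with channel sums equalised, and reported as log2 fold change in thermal stability against DMSO controls, with values from duplicates.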

Compound in experiment [2]: CC1=C(SC2=C1C(=N[C@H](C3=NN=C(N32)C)CC(=O)N)C4=CC=C(C=C4)Cl)C
The essentials: as §1

Compound in experiment [3]: CC1=C2C(=CC=C1)N=C(N(C2=O)C3=CC=CC=C3C)CN4C=NC5=C(N=CN=C54)N
The essentials:
as §1

Compound in experiment [4]: Cc1sc2c(c1C)C(c1ccc(Cl)cc1)=N[C@@H](CC(=O)OC(C)(C)C)c1nnc(C)n1-2
The gist of the method:
as §1

Compound in experiment [5]: c1ccc([C@@H]2C[C@H]2NC2CCNCC2)cc1
The essentials: as §1

Some of the results follow.

Take RIOK3 (UniProt O14730): the log2 fold change is inactive: -0.015 in experiment [1]; inactive: -0.008 in experiment [2]; inactive: -0.016 in experiment [3]; inactive: -0.008 in experiment [4]; inactive: 0.024 in experiment [5].

As to RHEB (UniProt Q15382), the log2 fold change in experiment [1] is inactive: 0.008; in experiment [2], inactive: 0.04; in experiment [3], inactive: 0.055; in experiment [4], inactive: -0.048; in experiment [5], inactive: -0.001.

Turning to RGP1 (UniProt Q92546), the log2 fold change in experiment [1] is inactive: -0.204; in experiment [2], inactive: -0.043; in experiment [3], inactive: 0.072; in experiment [4], inactive: -0.025; in experiment [5], inactive: -0.049.

Take RNF138 (UniProt Q8WVD3): the log2 fold change was inactive: -0.026 in experiment [1]; inactive: -0.223 in experiment [2]; inactive: 0.012 in experiment [3]; inactive: -0.059 in experiment [4]; inactive: 0.008 in experiment [5].

RCOR1 (UniProt Q9UKL0): the log2 fold change in experiment [1] was inactive: -0.113; in experiment [2], inactive: 0.021; in experiment [3], inactive: 0.114; in experiment [4], inactive: 0.006; in experiment [5], active: 0.856.

Take REPS1 (UniProt Q96D71): the log2 fold change in experiment [1] is inactive: 0.065; in experiment [2], inactive: -0.032; in experiment [3], inactive: 0.067; in experiment [4] it was inactive: 0.184; in experiment [5], inactive: -0.021.

Take RNF213 isoform 4 (UniProt Q63HN8): the log2 fold change in experiment [1] was inactive: -0.032; in experiment [2], inactive: 0.11; in experiment [3] it was inactive: -0.016; in experiment [4], inactive: -0.115; in experiment [5], inactive: -0.089.

For RDH10 (UniProt Q8IZV5), the log2 fold change in experiment [1] is inactive: 0.113; in experiment [2] it was inactive: 0.08; in experiment [3] it was inactive: 0.098; in experiment [4], inactive: -0.058; in experiment [5], inactive: -0.031.

On to REL (UniProt Q04864), for which the log2 fold change in experiment [1] is inactive: 0.058; in experiment [2], inactive: 0.048; in experiment [3], inactive: 0.046; in experiment [4] it was inactive: 0.037; in experiment [5], inactive: 0.065.
